Experimental data reported in patent US20260207623A1, “USE OF ESTETROL IN HEPATICALLY IMPAIRED PATIENTS” (ESTETRA SRL, priority 2022, published 2026).

Key:
post-menopausal women [1] = assay: Example 2 dose-finding study: weekly frequency of moderate to severe VMS (absolute and relative change, responders); assay type: in vivo, human; conditions: vs placebo and ineffective doses 2.5 and 5 mg grouped together
From the text: Enrolment was approximately 18 months. Individual subject participation was up to 27 weeks: up to 6 weeks pre-screening and washout, up to 4 weeks screening and run-in period, up to 91 days (13 weeks) of E4 monohydrate or placebo treatment followed by 2 weeks (14 days) of progestin therapy and a Follow up visit 1 week after completion of progestin therapy in non-hysterectomied subjects only.
To define the minimum effective dose (MED) of the oral dose of E4 by evaluating changes in frequency and in severity of moderate to severe vasomotor symptoms (VMS).
This was a prospective, multicentre, randomised, placebo-controlled, double-blinded, dose-finding study.
Eligible subjects were hysterectomied and non-hysterectomied post-menopausal women aged 40 to 65 years, inclusive, presenting at least 7 moderate to severe hot flushes/day or at least 50 moderate to severe hot flushes/week.
(§1) All treatments (Estetrol, hereinafter E4 as monohydrate, [2.5 mg, 5 mg, 10 mg, 15 mg] capsule) were administered once daily (QD) per os for at least 12 consecutive weeks until the last biological assessments (Day 91 maximum) had been performed.
In order to analyse the data recorded in this study, treatment groups have been compared using an ANCOVA (analysis of covariance) with respect to the change in weekly frequency of moderate to severe VMS from baseline to weeks 4 and 12. The ANCOVA model includes treatment (“trt1”) and study centre (“SITEPOOL”) as a fixed effect and baseline (“base”) as a covariate.
VMS frequency was also studied by grouping patients according to their degree of response.

post-menopausal women [2] = assay: Example 2 dose-finding study: Hot Flush Weekly Weighted Score; assay type: in vivo, human; conditions: for Hot Flush Weekly Weighted Score, relative change, difference with placebo, p_value: vs placebo and ineffective doses 2.5 and 5 mg grouped together
Method: Further, the terms “Hot Flush Weekly Weighted Score”, as used herein, corresponds to a score taking into account frequency and severity which is calculated by using the severity score (as calculated above): [(1×No. of mild VMS)+(2×No. of moderate VMS)+(3×No. of severe VMS)] during a 7 day period.
as §1
A further analysis of the results was thus prepared, where data from these two doses were grouped with the placebo dose and compared to the 10 mg and 15 mg estetrol monohydrate doses.

Question: Which “Weekly frequency of moderate to severe VMS, relative change, difference with placebo, p_value” (post-menopausal women [1]; 10 mg daily, week 4) does the source give for C[C@]12CC[C@@H]3c4ccc(O)cc4CC[C@H]3[C@@H]1[C@@H](O)[C@@H](O)[C@@H]2O [E4 monohydrate, estetrol monohydrate] here?
Answer: 0.2615

Question: And the “Weekly frequency of moderate to severe VMS, relative change, difference with placebo, p_value” (post-menopausal women [1]; 10 mg daily, week 12)?
Answer: 0.1798

Question: What about the “Weekly frequency of moderate to severe VMS, relative change, difference with placebo, p_value” (post-menopausal women [1]; 15 mg daily, week 4) of the same compound?
Answer: 0.00218

Question: What about the “Weekly frequency of moderate to severe VMS, relative change, difference with placebo, p_value” (post-menopausal women [1]; 15 mg daily, week 12) of the same compound?
Answer: 0.00099

Question: What about the “Hot Flush Weekly Weighted Score, absolute change, difference with placebo, p_value” (post-menopausal women [2]; 2.5 mg daily, week 4) of the same compound?
Answer: 0.9970

Question: And the “Hot Flush Weekly Weighted Score, relative change, differences with placebo, p_value” (post-menopausal women [2]; 2.5 mg daily, week 4)?
Answer: 1.0000

Question: What about the “Hot Flush Weekly Weighted Score, absolute change, difference with placebo, p_value” (post-menopausal women [2]; 2.5 mg daily, week 12) of the same compound?
Answer: 0.5176

Question: What about the “Hot Flush Weekly Weighted Score, relative change, differences with placebo, p_value” (post-menopausal women [2]; 2.5 mg daily, week 12) of the same compound?
Answer: 0.6744

Question: And the “Hot Flush Weekly Weighted Score, absolute change, difference with placebo, p_value” (post-menopausal women [2]; 5 mg daily, week 4)?
Answer: 0.7205

Question: And the “Hot Flush Weekly Weighted Score, relative change, differences with placebo, p_value” (post-menopausal women [2]; 5 mg daily, week 4)?
Answer: 0.8833

Question: What about the “Hot Flush Weekly Weighted Score, absolute change, difference with placebo, p_value” (post-menopausal women [2]; 5 mg daily, week 12) of the same compound?
Answer: 0.8780

Question: And the “Hot Flush Weekly Weighted Score, relative change, differences with placebo, p_value” (post-menopausal women [2]; 5 mg daily, week 12)?
Answer: 0.8871

Question: What about the “Hot Flush Weekly Weighted Score, absolute change, difference with placebo, p_value” (post-menopausal women [2]; 10 mg daily, week 4) of the same compound?
Answer: 0.9147

Question: And the “Hot Flush Weekly Weighted Score, relative change, differences with placebo, p_value” (post-menopausal women [2]; 10 mg daily, week 4)?
Answer: 0.6745

Question: And the “Hot Flush Weekly Weighted Score, relative change, difference with placebo, p_value” (post-menopausal women [2]; 10 mg daily, week 4)?
Answer: 0.4167

Question: What about the “Hot Flush Weekly Weighted Score, absolute change, difference with placebo, p_value” (post-menopausal women [2]; 10 mg daily, week 12) of the same compound?
Answer: 0.9785

Question: What about the “Hot Flush Weekly Weighted Score, relative change, differences with placebo, p_value” (post-menopausal women [2]; 10 mg daily, week 12) of the same compound?
Answer: 0.7861

Question: And the “Hot Flush Weekly Weighted Score, relative change, difference with placebo, p_value” (post-menopausal women [2]; 10 mg daily, week 12)?
Answer: 0.1404

Question: What about the “Hot Flush Weekly Weighted Score, absolute change, difference with placebo, p_value” (post-menopausal women [2]; 15 mg daily, week 4) of the same compound?
Answer: 0.0485

Question: And the “Hot Flush Weekly Weighted Score, relative change, differences with placebo, p_value” (post-menopausal women [2]; 15 mg daily, week 4)?
Answer: 0.0267

Question: What about the “Hot Flush Weekly Weighted Score, relative change, difference with placebo, p_value” (post-menopausal women [2]; 15 mg daily, week 4) of the same compound?
Answer: 0.00178

Question: What about the “Hot Flush Weekly Weighted Score, absolute change, difference with placebo, p_value” (post-menopausal women [2]; 15 mg daily, week 12) of the same compound?
Answer: 0.0951

Question: What about the “Hot Flush Weekly Weighted Score, relative change, differences with placebo, p_value” (post-menopausal women [2]; 15 mg daily, week 12) of the same compound?
Answer: 0.0276

Question: And the “Hot Flush Weekly Weighted Score, relative change, difference with placebo, p_value” (post-menopausal women [2]; 15 mg daily, week 12)?
Answer: 0.00097

Where no unit stands, none is given here, and values compare only within one read-out.
